For 42 sequences, binding signal results are on record in PMC7819943, “Rice protein-binding microarrays: a tool to detect cis-acting elements near promoter regions in rice”.

The list shows a part of the results.

This test addresses T1, OsSMF1 (Oryza sativa, UniProt Q6ZLB0 1-436).
T1 sequence: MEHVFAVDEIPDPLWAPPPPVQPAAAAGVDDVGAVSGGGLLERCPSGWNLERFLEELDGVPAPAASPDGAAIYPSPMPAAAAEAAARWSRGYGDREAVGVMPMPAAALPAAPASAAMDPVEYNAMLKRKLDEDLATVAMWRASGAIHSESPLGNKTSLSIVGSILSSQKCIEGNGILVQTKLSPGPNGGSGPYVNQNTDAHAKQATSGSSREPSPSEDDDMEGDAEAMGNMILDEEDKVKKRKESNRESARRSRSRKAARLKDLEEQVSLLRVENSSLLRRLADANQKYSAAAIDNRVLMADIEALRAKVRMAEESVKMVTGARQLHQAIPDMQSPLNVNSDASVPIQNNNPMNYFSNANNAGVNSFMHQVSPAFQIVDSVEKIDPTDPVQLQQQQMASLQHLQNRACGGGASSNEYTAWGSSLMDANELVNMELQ
As to the kind of experiment: protein-binding microarray (RPBM); PBS, 2% BSA, 51.3 ng/ul salmon testes DNA, 50 uM zinc acetate, 200 nM TF, 25 C, 1 h; high values mean tight binding. Conditions: protein: recombinant; tags: N-terminal polyhistidine and DsRed monomer fusion (pET32a); chain copies: 2; label: CyDye5-dUTP incorporated in the synthesized complementary strand; 3' TTTTT single-stranded linker to array surface; dsDNA, one strand shown. Put shortly: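 Binding signal is reported as fluorescence intensity per feature (arbitrary units) from an Axon 4000B scanner. Incubation used 200 nM of each Ni–NTA-purified, N-terminally polyhistidine- and DsRed-fused transcription factor from E. coli BL21-CodonPlus on a double-stranded custom Agilent array for 1 h at 25 °C, with 50 µM zinc acetate in the buffer, followed by washing.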
Take “AGATTCATAATACTAGGTTGAGTCACATACTCAAGAGTCACGGAGTCACCTAGTGCAG”: the binding signal is 7190 fluorescence intensity (a.u.).

With “CATTCAGTTCTTTGACAGTAGACTATATCTGGGTGTAGCACGGAGTCACCTAGTGCAG”, the binding signal was 3200 fluorescence intensity (a.u.).

In the case of “AAGAAATGGGCCGGAACGGACAGTTGGACGTGGAAGGCCCCGGAGTCACCTAGTGCAG”, the binding signal was 3420 fluorescence intensity (a.u.).

Turning to “AAATCCGGCCCAGCTTTGTGCTGACACTGACATGCGGGGCCGGAGTCACCTAGTGCAG”, the binding signal is 4640 fluorescence intensity (a.u.).

For “AAAGTGACCCACGGTGACGCGGCAATAAAACGTCGAGGGCCGGAGTCACCTAGTGCAG”, the binding signal was 10000 fluorescence intensity (a.u.).

Take “GGTCCTGCGGCCGCTGGCCTTGCTCGAGGACACGCTCCGGCGGAGTCACCTAGTGCAG”: the binding signal was 3160 fluorescence intensity (a.u.).

For “TCAACTCAACTCATCAAGATATCATCATCATCAGAGAGGTCGGAGTCACCTAGTGCAG”, the binding signal was 4500 fluorescence intensity (a.u.).

Consider “AAATGTACTTAATCACAGCCGGTGACTGACACGTTGGGTCCGGAGTCACCTAGTGCAG”, for which the binding signal was 6700 fluorescence intensity (a.u.).

As for “CTCCAAGGGCCGGTTGTTGGTGTCATCAATCTGCTCCGCACGGAGTCACCTAGTGCAG”, the binding signal was 5750 fluorescence intensity (a.u.).

For the sequence “AGTGCATGCCACGTTGTTTGTGCACCGTGTCTCAGAGCTGCGGAGTCACCTAGTGCAG”, the binding signal is 10300 fluorescence intensity (a.u.).

As for “CACTACCGGATCCGTGGCCACTATGCGTGGGGAGGGCGGTCGGAGTCACCTAGTGCAG”, the binding signal is 3720 fluorescence intensity (a.u.).

With “ACACGTTCAAAATGAACGTGCTCTTCTGGACACGTGGCATCGGAGTCACCTAGTGCAG”, the binding signal is 22700 fluorescence intensity (a.u.).

Consider “GCGGAGGCCGCCGGCTGACGTGGCTCCCAACGGCCGGGAGCGGAGTCACCTAGTGCAG”, for which the binding signal was 21200 fluorescence intensity (a.u.).

For the sequence “ATTAAAATAATATCCTAGTTATAACTTTCCAACCTATACACGGAGTCACCTAGTGCAG”, the binding signal is 27200 fluorescence intensity (a.u.).

On to “CTGAAGCAGCTGTGACGAACAGCTTGTTGCATTTCCTGCTCGGAGTCACCTAGTGCAG”, for which the binding signal is 4400 fluorescence intensity (a.u.).

Consider “ACGACGTGCCCGCGATGACGACGTCTTCCTGTCCACGTCGCGGAGTCACCTAGTGCAG”, for which the binding signal is 4210 fluorescence intensity (a.u.).

For the sequence “AAGTTTTCCTAGAACTGTATAGGCATGCACTAGTTTGCAACGGAGTCACCTAGTGCAG”, the binding signal was 34700 fluorescence intensity (a.u.).

Take “TTCGTCCTTTAATTGCTTTCCTGTTGCCAGCTTGCTTTATCGGAGTCACCTAGTGCAG”: the binding signal is 3460 fluorescence intensity (a.u.).

Take “TCTGCTTTCATTTGTGTTCATTATTGATATCTTTTGAACCCGGAGTCACCTAGTGCAG”: the binding signal was 25300 fluorescence intensity (a.u.).

Turning to “AGGAGCAGCAACCCAACACAGTACCGCGCGACACTGTAGCCGGAGTCACCTAGTGCAG”, the binding signal was 5390 fluorescence intensity (a.u.).

With “AATGTTCTCCGGTGACACTAAATTATATTTGTTATGTTGGCGGAGTCACCTAGTGCAG”, the binding signal is 3400 fluorescence intensity (a.u.).

“TGATCTCTGACCTGTGATCTGTCAGATGGACTGAAACCTACGGAGTCACCTAGTGCAG”: the binding signal is 4110 fluorescence intensity (a.u.).

With “CGTGTGCCTCCAACCTCGCGGCACACGTGACACAGACGCTCGGAGTCACCTAGTGCAG”, the binding signal was 3220 fluorescence intensity (a.u.).

Consider “AATCTGTTGACTGGTTACATCATCAGTAAGTGGTAGGAAACGGAGTCACCTAGTGCAG”, for which the binding signal was 3200 fluorescence intensity (a.u.).

Take “CACTAGTGTGAGTGCCGGCTTCCCTGACATCGAATAGCATCGGAGTCACCTAGTGCAG”: the binding signal is 3170 fluorescence intensity (a.u.).

For the sequence “ATAACAGCTCATGTCAATGCTCTACTCATCATTGGTGGAGCGGAGTCACCTAGTGCAG”, the binding signal was 3200 fluorescence intensity (a.u.).

On to “CTGCCTCCTCCTTCTGTGATCACTTCTTGCAAACCAATCGCGGAGTCACCTAGTGCAG”, for which the binding signal is 4080 fluorescence intensity (a.u.).

On to “AGGCAATCTCTCATCTCATGACTAGACTTTGACAAGTTGTCGGAGTCACCTAGTGCAG”, for which the binding signal was 5570 fluorescence intensity (a.u.).

Take “TTGGTTTGAGGCCTAAATTAGACTTATCAATATTTGACAACGGAGTCACCTAGTGCAG”: the binding signal is 38600 fluorescence intensity (a.u.).

“TCCTCTCCCTCCTCCCCACTTCAAGATTTTCACCAACCTTCGGAGTCACCTAGTGCAG”: the binding signal was 4060 fluorescence intensity (a.u.).

As for “GCGTCAGAAGGTTGCAACGCCTATATTGCCACACCAGCCGCGGAGTCACCTAGTGCAG”, the binding signal was 3610 fluorescence intensity (a.u.).

In the case of “GCGTACGTACGCGTCAGCTCTCTCTCTCTCTCTCTCTCCTCGGAGTCACCTAGTGCAG”, the binding signal was 15700 fluorescence intensity (a.u.).

On to “CCAGGACATAATGCAAACTACGTGACTTTCTGAAGTATTACGGAGTCACCTAGTGCAG”, for which the binding signal is 14400 fluorescence intensity (a.u.).

For the sequence “GCTGATGGAGTTGCTACCACCGCTTCTATCGCCACGTGTCCGGAGTCACCTAGTGCAG”, the binding signal is 18100 fluorescence intensity (a.u.).

As for “TCGGTTTCCATGGCAGCGTTGCACGGTTGTACCGTGGCGTCGGAGTCACCTAGTGCAG”, the binding signal is 3490 fluorescence intensity (a.u.).

Regarding “GTCAGTGACAGTGTGACACAGACGTTCTCTGCTTCCACCTCGGAGTCACCTAGTGCAG”, the binding signal is 5580 fluorescence intensity (a.u.).

Consider “ATCCGACGCGGGCGCTCGGTGACGGTGAGGCCACTTAGCTCGGAGTCACCTAGTGCAG”, for which the binding signal is 4360 fluorescence intensity (a.u.).

As for “AGTTTGGTTGTAATCCTCCTAATCTTAATCGAATTGCTTCCGGAGTCACCTAGTGCAG”, the binding signal is 17500 fluorescence intensity (a.u.).

Consider “CATATTATCCCTGCCAATAAATAAATAAATAAAATTGAGCCGGAGTCACCTAGTGCAG”, for which the binding signal is 24700 fluorescence intensity (a.u.).

As for “TAGTGGTGATGCTAATTGTGAGAAGGTGCCAGGTGGTTTGCGGAGTCACCTAGTGCAG”, the binding signal was 3810 fluorescence intensity (a.u.).

As to “CCACTGCACTGCACTGCCAATGACAGCTCTCGCGCGAGGCCGGAGTCACCTAGTGCAG”, the binding signal is 3410 fluorescence intensity (a.u.).

Consider “CCGTTACACCACCCGCCTCACGCCGTCACGTCAACTTCCGCGGAGTCACCTAGTGCAG”, for which the binding signal is 4490 fluorescence intensity (a.u.).
